# Experimental data: PubChem BioAssay AID330 (DTP/NCI, 2004)
# The list is a part of this screen's results and no random one: it is rich in T/C values a quarter to a half above the control, in often repeated tests (any T/C) and in doses without a T/C. Other doses and runs of a compound stand elsewhere. T/C: endpoint of the treated group in % of that of the vehicle group. Some doses have a count of surviving animals in place of a T/C: the source holds a T/C of zero for them, seemingly a mark for toxic or unscored doses. Some doses without a T/C left all or most animals alive at the check, yet need not have been tolerated: the source hardly ever lists a survival T/C far under the control, and the zero likely stands for such cases as well. Survivors were counted at the toxicity check, usually on the fifth day, unless a day is given; later deaths do not show. Schedule codes are those of the source, read here as Q, the interval in days (D) or hours (H), X, the number of doses. Some structures stand for samples that the source files as different forms (salt, stereo form or complex); doses refer to the form tested. Some entries were tested several times; the values are given in rising order. For survival time, the PubChem record calls one and a half times the control and up active, and a quarter to a half above the control has no call in these data; cut-offs in other NCI protocols can differ. Some T/C values are followed by the survivors on the day toxicity was checked, most often the fifth; without a count, all were alive then. Additions like (4×) give the number of equal values in this list.
# Tested on: P388 leukemia ip, CD2F1 mice, survival T/C
# Assay: NCI In Vivo Anticancer Drug Screen. Data for tumor model P388 Leukemia (intraperitoneal) in CD2F1 (CDF1) mice
# Settings: T/C endpoint: median survival time, higher T/C = longer survival
# [1] = dose: 80.0 mg/kg/injection, schedule: Q01DX009 (ip), vehicle: distilled water + Tween-80
smiles,measurement,setting,value
COc1cc(NCc2ccc3nc(N)nc(N)c3c2C)cc(OC)c1OC,T/C,"dose: 2.5 mg/kg/injection, schedule: Q01DX009 (ip), vehicle: sodium bicarbonate",144 % of control
same,T/C,"dose: 2.59 mg/kg/injection, schedule: Q01DX009 (ip), vehicle: Klucel (hydroxypropylcellulose) (HPC)",129 % of control
same,T/C,"dose: 3.11 mg/kg/injection, schedule: Q01DX009 (ip), vehicle: Klucel (hydroxypropylcellulose) (HPC)",126 % of control
same,T/C,"dose: 4.32 mg/kg/injection, schedule: Q01DX009 (ip), vehicle: Klucel (hydroxypropylcellulose) (HPC)",135 % of control
same,T/C,"dose: 4.32 mg/kg/injection, schedule: Q03HX006 (ip), vehicle: Klucel (hydroxypropylcellulose) (HPC)",133 % of control
same,T/C,"dose: 5.0 mg/kg/injection, schedule: Q01DX009 (ip), vehicle: distilled water + Tween-80",128 % of control
same,T/C,"dose: 5.0 mg/kg/injection, schedule: Q01DX009 (ip), vehicle: sodium bicarbonate",146 % of control
same,T/C,"dose: 5.18 mg/kg/injection, schedule: Q01DX009 (ip), vehicle: Klucel (hydroxypropylcellulose) (HPC)",144 % of control
same,T/C,"dose: 6.25 mg/kg/injection, schedule: Q01DX009 (ip), vehicle: Klucel (hydroxypropylcellulose) (HPC)",144 % of control
same,T/C,"dose: 7.2 mg/kg/injection, schedule: Q03HX006 (ip), vehicle: Klucel (hydroxypropylcellulose) (HPC)",148 % of control
same,T/C,"dose: 7.5 mg/kg/injection, schedule: Q01DX005 (ip), vehicle: Klucel (hydroxypropylcellulose) (HPC)",144 % of control [7 of 8 alive]
same,T/C,"dose: 7.5 mg/kg/injection, schedule: Q01DX009 (ip), vehicle: water",136 % of control
same,T/C,"dose: 8.39 mg/kg/injection, schedule: Q01DX009 (ip), vehicle: water",148 % of control
same,T/C,"dose: 10.0 mg/kg/injection, schedule: Q01DX009 (ip), vehicle: distilled water + Tween-80","136, 137, 138, 142, 145, 146 % of control"
same,T/C,"dose: 13.0 mg/kg/injection, schedule: Q01DX005 (ip), vehicle: Klucel (hydroxypropylcellulose) (HPC)",146 % of control [8 of 9 alive]
same,T/C,"dose: 15.0 mg/kg/injection, schedule: Q01DX005 (ip), vehicle: water",131 % of control [9 of 10 alive]
same,T/C,"dose: 15.0 mg/kg/injection, schedule: Q01DX005 (iv), vehicle: water",131 % of control
same,T/C,"dose: 15.0 mg/kg/injection, schedule: Q01DX009 (oral), vehicle: water",136 % of control
same,T/C,"dose: 15.0 mg/kg/injection, schedule: Q03HX008 (ip), vehicle: water",127 % of control
same,T/C,"dose: 18.0 mg/kg/injection, schedule: Q01DX009 (ip), vehicle: distilled water + Tween-80, evaluated on day 30","149, 153, 156, 162 % of control"
same,T/C,"dose: 18.0 mg/kg/injection, schedule: Q01DX009 (ip), vehicle: distilled water + Tween-80, evaluated on day 45",156 % of control
same,T/C,"dose: 20.0 mg/kg/injection, schedule: Q01DX009 (ip), vehicle: distilled water + Tween-80","136, 151, 153, 156, 157, 171 % of control"
same,T/C,"dose: 21.6 mg/kg/injection, schedule: Q04DX002 (ip), vehicle: Klucel (hydroxypropylcellulose) (HPC)",127 % of control
same,T/C,"dose: 25.0 mg/kg/injection, schedule: Q01DX009 (oral), vehicle: sodium bicarbonate",131 % of control
same,T/C,"dose: 27.0 mg/kg/injection, schedule: Q01DX009 (ip), vehicle: distilled water + Tween-80, evaluated on day 30","156, 157, 160, 161, 163, 171, 172, 178 % of control"
same,T/C,"dose: 27.0 mg/kg/injection, schedule: Q01DX009 (ip), vehicle: distilled water + Tween-80, evaluated on day 40",165 % of control
same,T/C,"dose: 27.0 mg/kg/injection, schedule: Q01DX009 (ip), vehicle: distilled water + Tween-80, evaluated on day 45","159, 161, 166 % of control"
same,T/C,"dose: 30.0 mg/kg/injection, schedule: Q01DX005 (ip), vehicle: water",142 % of control
same,T/C,"dose: 30.0 mg/kg/injection, schedule: Q01DX005 (iv), vehicle: water",142 % of control
same,T/C,"dose: 30.0 mg/kg/injection, schedule: Q01DX005 (oral), vehicle: water",139 % of control
same,T/C,"dose: 30.0 mg/kg/injection, schedule: Q03HX008 (ip), vehicle: water",132 % of control
same,T/C,"dose: 36.0 mg/kg/injection, schedule: Q04DX002 (ip), vehicle: Klucel (hydroxypropylcellulose) (HPC)",135 % of control
same,T/C,"dose: 40.0 mg/kg/injection, schedule: Q01DX009 (ip), vehicle: distilled water + Tween-80, evaluated on day 30","152, 153, 156, 157, 164, 164 [5 of 6 alive], 165, 167, 169, 170, 171 (2×), 178, 181, 183 % of control"
same,T/C,"dose: 40.0 mg/kg/injection, schedule: Q01DX009 (ip), vehicle: distilled water + Tween-80, evaluated on day 40",165 % of control
same,T/C,"dose: 40.0 mg/kg/injection, schedule: Q01DX009 (ip), vehicle: distilled water + Tween-80, evaluated on day 45","157, 161, 167 % of control"
same,T/C,"dose: 40.3 mg/kg/injection, schedule: Q01DX005 (iv), vehicle: water",145 % of control
same,T/C,"dose: 50.0 mg/kg/injection, schedule: Q01DX009 (oral), vehicle: sodium bicarbonate",144 % of control
same,T/C,"dose: 60.0 mg/kg/injection, schedule: Q01DX005 (ip), vehicle: water",144 % of control
same,survivor count,"dose: 60.0 mg/kg/injection, schedule: Q01DX005 (iv), vehicle: clinical formulation",0 of 8
same,survivor count,"dose: 60.0 mg/kg/injection, schedule: Q01DX005 (iv), vehicle: water",4 of 10
same,T/C,"dose: 60.0 mg/kg/injection, schedule: Q01DX009 (ip), vehicle: distilled water + Tween-80, evaluated on day 30","157, 162, 164, 165 (2×), 168, 174, 182, 184 % of control"
same,T/C,"dose: 60.0 mg/kg/injection, schedule: Q01DX009 (ip), vehicle: distilled water + Tween-80, evaluated on day 40",172 % of control
same,T/C,"dose: 60.0 mg/kg/injection, schedule: Q01DX009 (ip), vehicle: distilled water + Tween-80, evaluated on day 45","158, 162, 170 % of control"
same,T/C,[1],"181, 182, 183, 197, 205 % of control"
same,survivor count,[1],6 of 6
same,survivor count,"dose: 80.0 mg/kg/injection, schedule: Q01DX009 (ip), vehicle: sodium bicarbonate",6 of 6
same,survivor count,"dose: 80.5 mg/kg/injection, schedule: Q01DX005 (iv), vehicle: water",4 of 8
same,T/C,"dose: 90.0 mg/kg/injection, schedule: Q01DX009 (ip), vehicle: distilled water + Tween-80, evaluated on day 30","94, 148, 171, 175, 180, 184 [9 of 10 alive], 186 [9 of 10 alive], 200, 201 % of control"
same,T/C,"dose: 90.0 mg/kg/injection, schedule: Q01DX009 (ip), vehicle: distilled water + Tween-80, evaluated on day 40",189 % of control
same,T/C,"dose: 90.0 mg/kg/injection, schedule: Q01DX009 (ip), vehicle: distilled water + Tween-80, evaluated on day 45","175, 177, 183 % of control"
same,survivor count,"dose: 100.0 mg/kg/injection, schedule: Q01DX009 (oral), vehicle: sodium bicarbonate",5 of 5
same,survivor count,"dose: 110.0 mg/kg/injection, schedule: Q01DX009 (ip), vehicle: distilled water + Tween-80",3 of 10 and 6 of 6
same,survivor count,"dose: 115.0 mg/kg/injection, schedule: Q01DX009 (ip), vehicle: distilled water + Tween-80",7 of 10
same,survivor count,"dose: 120.0 mg/kg/injection, schedule: Q01DX001 (iv), vehicle: water",0 of 10
same,survivor count,"dose: 120.0 mg/kg/injection, schedule: Q01DX005 (ip), vehicle: water",2 of 10
same,survivor count,"dose: 120.0 mg/kg/injection, schedule: Q01DX005 (iv), vehicle: water",0 of 10
same,survivor count,"dose: 120.0 mg/kg/injection, schedule: Q01DX009 (ip), vehicle: water",10 of 10
same,survivor count,"dose: 120.0 mg/kg/injection, schedule: Q01DX009 (oral), vehicle: water",8 of 10
same,survivor count,"dose: 120.0 mg/kg/injection, schedule: Q03HX008 (ip), vehicle: water",0 of 10
same,survivor count,"dose: 120.0 mg/kg/injection, schedule: Q03HX024 (ip), vehicle: water",1 of 10
same,survivor count,"dose: 130.0 mg/kg/injection, schedule: Q01DX009 (ip), vehicle: distilled water + Tween-80","3 of 10, 6 of 8, 9 of 10, 10 of 10"
same,survivor count,"dose: 160.0 mg/kg/injection, schedule: Q01DX005 (ip), vehicle: Klucel (hydroxypropylcellulose) (HPC)",6 of 6
same,survivor count,"dose: 200.0 mg/kg/injection, schedule: Q01DX009 (oral), vehicle: sodium bicarbonate",5 of 5 and 6 of 6
same,survivor count,"dose: 240.0 mg/kg/injection, schedule: Q01DX001 (ip), vehicle: water",0 of 10
same,survivor count,"dose: 240.0 mg/kg/injection, schedule: Q01DX001 (iv), vehicle: water",0 of 10
same,survivor count,"dose: 240.0 mg/kg/injection, schedule: Q01DX005 (oral), vehicle: water",10 of 10
same,survivor count,"dose: 240.0 mg/kg/injection, schedule: Q01DX009 (oral), vehicle: water",9 of 10
same,survivor count,"dose: 240.0 mg/kg/injection, schedule: Q04DX003 (ip), vehicle: water",1 of 10
same,survivor count,"dose: 400.0 mg/kg/injection, schedule: Q01DX009 (oral), vehicle: sodium bicarbonate",4 of 6 and 6 of 6
same,survivor count,"dose: 480.0 mg/kg/injection, schedule: Q01DX001 (ip), vehicle: water",0 of 10
same,survivor count,"dose: 480.0 mg/kg/injection, schedule: Q01DX001 (iv), vehicle: water",0 of 10
same,survivor count,"dose: 480.0 mg/kg/injection, schedule: Q04DX003 (ip), vehicle: water",0 of 10
